Values from PubChem BioAssay AID504793 (Drosophila RNAi Screening Center, 2011)
The screen tested about 23,000 reagents; this is a random part of those with a known target gene and a result. Over the whole deposit, 62 (0.27%) got an active call. 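Calls come from follow-up tests whose scores are not deposited, so confirmed genes may have low counts here; counts are not normalised per plate.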 The raw values are shown without normalisation. A plus sign joins genes that one reagent is predicted to hit. No sequences are given here.

Screen: 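Genes required for cells to halt at G2/M after double-strand DNA breaks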 (primary screen)
Cell system: Drosophila S2R+ cells
Reagent: long dsRNA against Drosophila genes, about 0.25 µg dsRNA per well
Timing: 4 days of dsRNA, then 4 hours of drug before read-out
Conditions: doxorubicin 0.5 µM for 4 hours to cause double-strand breaks, in cells also given a low, harmless dose of dsRNA against nbs to sensitise the assay
Measured: 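Mitotic index as the number of phospho-histone H3-positive cells in each well following doxorubicin, given as raw counts without normalisation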
Reading the numbers: mitotic cells: higher = more cells in mitosis, weaker G2 arrest
Rule for the call: 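a call needs confirmation in secondary tests, with other dsRNAs and a check of mitotic timing without damage, not just a high primary count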
Meaning of the calls: active = confirmed in follow-up tests; inactive = not confirmed

scat [DRSC02722] → mitotic cells, replicate 1: 5; outcome: inactive
scat [DRSC27076] → mitotic cells, replicate 1: 1; outcome: inactive
Pdi [DRSC11250] → mitotic cells, replicate 1: 9; outcome: inactive
Pdi [DRSC26376] → mitotic cells, replicate 1: 7; outcome: inactive
CG9416 [DRSC07339] → mitotic cells, replicate 1: 10; outcome: inactive
ND-B16.6 [DRSC18306] → mitotic cells, replicate 1: 12; outcome: inactive
ND-B16.6 [DRSC22600] → mitotic cells, replicate 1: 13; outcome: inactive
ND-B16.6 [DRSC26200] → mitotic cells, replicate 1: 6; outcome: inactive
MICU3 [DRSC13381] → mitotic cells, replicate 1: 5; outcome: inactive
MICU3 [DRSC15613] → mitotic cells, replicate 1: 4; outcome: inactive
CG9992 [DRSC20226] → mitotic cells, replicate 1: 10; outcome: inactive
CG9992 [DRSC21643] → mitotic cells, replicate 1: 8; outcome: inactive
ms(2)35Ci [DRSC01460] → mitotic cells, replicate 1: 7; outcome: inactive
CG15456 [DRSC20527] → mitotic cells, replicate 1: 4; outcome: inactive
Pak [DRSC12602] → mitotic cells, replicate 1: 12; outcome: inactive
Pak [DRSC23302] → mitotic cells, replicate 1: 10; outcome: inactive
CG5854 [DRSC15894] → mitotic cells, replicate 1: 12; outcome: inactive
CG5854 [DRSC28599] → mitotic cells, replicate 1: 3; outcome: inactive
CG13671 [DRSC10030] → mitotic cells, replicate 1: 2; outcome: inactive
CG15747 [DRSC19713] → mitotic cells, replicate 1: 7; outcome: inactive
CG15747 [DRSC28586] → mitotic cells, replicate 1: 6; outcome: inactive
CG34178 + CG34177 [DRSC00351] → mitotic cells, replicate 1: 3; outcome: inactive
CG31111 [DRSC14649] → mitotic cells, replicate 1: 6; outcome: inactive

Laid out differently: 2 of the entries above
| gene | DRSC id | mitotic cells, replicate 1 | outcome |
| --- | --- | --- | --- |
| scat | DRSC02722 | 5 | inactive |
| scat | DRSC27076 | 1 | inactive |
